About 780 (0.22%) of roughly 360,000 compounds were called active. The shares of active, inactive and inconclusive entries below differ from those in the screen. Rule as the data show it: active = inhibition above about 35% (passing the limit was not always enough); inconclusive = no clear call, values can overlap the other calls.
tested on: Botulinum neurotoxin type F light chain protease (Clostridium botulinum); assay: BoNT/F light chain protease inhibitors, primary screen, biochemical, flow cytometry, MLPCN library (AID 588497); conditions: Multiplex microsphere protease cleavage assay, at 10 µM, active compounds read high; also: plate controls were buffer without enzyme for full effect and enzyme alone for no effect

| Compound | inhibition |
| --- | --- |
| Cc1ccc(OCC(=O)N2CCN(C(=O)c3ccco3)CC2)cc1 | inactive: -5.6% |
| Nc1c(Cl)c(Cl)nc(C(=O)OCC(=O)NCc2ccccc2)c1Cl | inactive: 0% |
| O=C(Cc1ccccc1F)Nc1cccc(S(=O)(=O)N2CCCCC2)c1 | inactive: -4.6% |
| Cc1ccc(NC(=O)NCCCN2CCOCC2)cc1 | inconclusive: -33% |
| C=CCc1cccc2cc(C(=O)Nc3ccc(CC(=O)O)cc3)c(=O)oc12 | inactive: -2.8% |
| COc1ccc(Br)cc1/C=N/NC(=O)c1nc(-c2ccccc2)n2c1CCCCC2 | inconclusive: -5.2% |
| O=c1[nH]cnc2c1ncn2-c1ccc(N(CCO)CCO)cc1 | inactive: -1.5% |
| CCOC(=O)c1cnn(-c2ccc([N+](=O)[O-])cc2)c1N | inconclusive: 64.6% |
| COc1cc(CNC(=O)c2cnccn2)cc(OC)c1 | inconclusive: -6.1% |
| C#CC(CC)(CC)NC(=O)/C=C/C(=O)O | inconclusive: 57.3% |
| CCc1cc(-c2nnn(-c3cc(C(C)C)ccc3C)c2CC)ccc1-c1cn(CCc2c[nH]c3ccccc23)nn1 | inactive: -1.5% |
| CCOc1ccc(N2C(=O)CSC2=S)cc1 | inconclusive: 19.6% |
| COc1ccccc1/C=N/NC(=O)c1csc(C)c1C | inactive: 2.7% |
| Cc1cc(C)n(Cc2nc3ccccc3n2C)n1 | inconclusive: 17.5% |
| COCCN(CCOC)C(=O)C1CCN(c2ccc(S(=O)(=O)N3CCOCC3)cc2[N+](=O)[O-])CC1 | inconclusive: -116% |
| CC(C)(C)N1C(=O)NC(=O)/C(=C\c2ccc3c(c2)CCN3CCCCl)C1=O | inconclusive: -9.4% |
| Cc1ccc(/C=N/NC(=O)c2ccc3c(c2)OCCO3)s1 | inconclusive: 9.4% |
| Cc1c(NC(=S)SCc2ccccc2)c(=O)n(-c2ccccc2)n1C | inactive: -3.7% |
| Cc1ccc(C(=O)Nc2scc(-c3ccccc3)c2C(=O)O)cc1 | active: 36.2% |
| Cc1ccc(/C=N/n2c(C3CCCCC3)n[nH]c2=S)cc1 | inconclusive: -4.6% |
| CCOC(=O)c1cc2c(c(CCO)n1)[C@H](CCO)N(S(=O)C(C)(C)C)C2 (stereo not given in full) | inactive: -0.7% |
| Cc1ccc(C(=O)N/C(=C\c2ccccc2)C(=O)NCCCn2ccnc2)cc1 | inactive: -1.5% |
| C/C(=N\N=C1\NC(=O)C(CC(=O)Nc2ccc(Cl)cc2)S1)c1ccco1 (stereo not given) | inactive: 0.2% |
| O=S1(=O)CC(N2CCN(CCO)CC2)CN1Cc1cn(Cc2ccc(F)cc2)nn1 (stereo not given) | inactive: -7.8% |

| Compound | inhibition |
| --- | --- |
| Fc1ccccc1NC(=S)NCc1ccccc1 | inconclusive: 8.9% |
| Cc1ccc(C)c(CN2CCSCC2)c1 | inconclusive: 18.1% |
| CCCCNC(=O)C1(C)CCCCN1C(=O)c1ccc2c(c1)C(C)(C)CCC2(C)C (stereo not given) | inactive: 2.4% |
| NC(=O)c1ccc(NC(=O)COc2ccc([N+](=O)[O-])cc2Cl)cc1 | inactive: -0.6% |
| COc1cc(C(=O)NCC(C)(C)CNC(=O)c2cc(OC)c(OC)c(OC)c2)cc(OC)c1OC | inconclusive: 15.5% |
| COCCN1C(=O)N(c2cccc(C)c2)C(=O)C1CC(=O)Nc1cc(OC)cc(OC)c1 (stereo not given) | inconclusive: -11.8% |
| CC(C)NC(=O)c1ccccc1-c1ccccc1 | inconclusive: -4.5% |
| Cc1ccc(C(=O)Oc2cccc(NC(=O)c3cccs3)c2)cc1S(=O)(=O)N1CCOCC1 | inconclusive: -17.6% |
| Cc1c(C)n(Cc2ccccc2)c2ncnc(NCCCO)c12 | inconclusive: -13.1% |
| Nc1n[nH]c2cccc(Cl)c12 | inconclusive: 91.6% |
| CCCOc1ccc(C(=O)N/N=C/c2c[nH]c3ccc(Br)cc23)cc1 | inactive: -3.3% |
| CCc1cc(N2CCOCC2)cc2c1[nH]c1ccccc12 | inactive: 8.5% |
| Cc1ccc(S(=O)(=O)N2CCCc3ccccc32)cc1C | inconclusive: -26.1% |
| CN(C)c1ccc(C(=S)N2CCOCC2)cc1Br | inconclusive: 9.2% |
| COc1cc(C)ccc1OCC(=O)OCC(=O)NCC1CCCCC1 | inactive: -2.9% |
| CC(C)CC1NC(=S)N(C2CCCCC2)C1=O (stereo not given) | inconclusive: -28.1% |
| COC(=O)c1sc(-c2ccc(C(C)(C)C)cc2)cc1NC(=O)CSCC(=O)O | inconclusive: -113% |
| CCOc1cc(/C=C2\N=C(SC)SC2=O)cc([N+](=O)[O-])c1OC(C)=O | inconclusive: -2.9% |
| CCC(=O)Nc1cccc(-c2cnc3ccccc3n2)c1 | inconclusive: -10.9% |
| CCOc1ccc(NC(=O)c2ccc(Cl)c(NC(=O)c3ccco3)c2)cc1 | active: 37.8% |
| COc1cc(/C=C/C(=O)Nc2ccc(C(C)=O)cc2)cc(OC)c1OC | inactive: -5.9% |
| O=C1c2ccccc2C(=O)N1CCc1nc(-c2ccccn2)no1 | inactive: 5.3% |
| O=c1cc(O)c2c(=O)[nH]c(=O)n(-c3ccccc3)c2[nH]1 | inconclusive: 3.3% |
| CSC1=N/C(=C\c2ccc(Cl)cc2)C(=O)N1N(C)C | inconclusive: -36% |

19 structures out of the list, ordered by SMILES length, rising:

| Compound | inhibition |
| --- | --- |
| Fc1ccccc1NC(=S)NCc1ccccc1 | inconclusive: 8.9% |
| Cc1cc(C)n(Cc2nc3ccccc3n2C)n1 | inconclusive: 17.5% |
| Cc1ccc(NC(=O)NCCCN2CCOCC2)cc1 | inconclusive: -33% |
| CN(C)c1ccc(C(=S)N2CCOCC2)cc1Br | inconclusive: 9.2% |
| CCc1cc(N2CCOCC2)cc2c1[nH]c1ccccc12 | inactive: 8.5% |
| Cc1ccc(S(=O)(=O)N2CCCc3ccccc32)cc1C | inconclusive: -26.1% |
| Cc1ccc(/C=N/NC(=O)c2ccc3c(c2)OCCO3)s1 | inconclusive: 9.4% |
| Cc1ccc(/C=N/n2c(C3CCCCC3)n[nH]c2=S)cc1 | inconclusive: -4.6% |
| Cc1ccc(OCC(=O)N2CCN(C(=O)c3ccco3)CC2)cc1 | inactive: -5.6% |
| CCOC(=O)c1cnn(-c2ccc([N+](=O)[O-])cc2)c1N | inconclusive: 64.6% |
| COc1cc(/C=C/C(=O)Nc2ccc(C(C)=O)cc2)cc(OC)c1OC | inactive: -5.9% |
| CCOc1ccc(NC(=O)c2ccc(Cl)c(NC(=O)c3ccco3)c2)cc1 | active: 37.8% |
| Cc1ccc(C(=O)N/C(=C\c2ccccc2)C(=O)NCCCn2ccnc2)cc1 | inactive: -1.5% |
| C/C(=N\N=C1\NC(=O)C(CC(=O)Nc2ccc(Cl)cc2)S1)c1ccco1 (stereo not given) | inactive: 0.2% |
| CCOc1cc(/C=C2\N=C(SC)SC2=O)cc([N+](=O)[O-])c1OC(C)=O | inconclusive: -2.9% |
| COCCN1C(=O)N(c2cccc(C)c2)C(=O)C1CC(=O)Nc1cc(OC)cc(OC)c1 (stereo not given) | inconclusive: -11.8% |
| Cc1ccc(C(=O)Oc2cccc(NC(=O)c3cccs3)c2)cc1S(=O)(=O)N1CCOCC1 | inconclusive: -17.6% |
| COCCN(CCOC)C(=O)C1CCN(c2ccc(S(=O)(=O)N3CCOCC3)cc2[N+](=O)[O-])CC1 | inconclusive: -116% |
| CCc1cc(-c2nnn(-c3cc(C(C)C)ccc3C)c2CC)ccc1-c1cn(CCc2c[nH]c3ccccc23)nn1 | inactive: -1.5% |

More records follow.

| Compound | inhibition |
| --- | --- |
| COc1cc(C)c(S(=O)(=O)NCCCn2ccnc2)cc1C | inconclusive: 41.4% |
| COc1cccc(-c2csc(NNC(=O)c3cccs3)n2)c1 | inactive: -14.1% |
| NC(=O)N/N=C/c1ccc([N+](=O)[O-])o1 | inactive: -1.4% |
| COc1ccc(N(C(C)C(=O)N(C)Cc2ccccc2)S(C)(=O)=O)cc1 (stereo not given) | inconclusive: -15.3% |
| O=C(Oc1ccc(C(=S)N2CCOCC2)cc1)c1ccc(F)cc1 | inconclusive: 45% |
| COc1cc(C(=O)OCc2nc3ccsc3c(=O)[nH]2)c([N+](=O)[O-])cc1OC | inactive: 19.6% |
| O=C(CCl)Nc1cccc(CP(=O)(c2ccccc2)c2ccccc2)c1 | inconclusive: -36.9% |
| O=C(O)C1CCC(=O)N1Cc1ccccc1Cl (stereo not given) | inconclusive: -19.6% |
| O=c1c2sc(-c3ccccc3)cc2nc2n1CCCCC2 | inconclusive: 10.6% |
| COc1cc(/C=N/NC(=O)c2cccc(NC(=O)c3ccccc3)c2)ccc1O | inactive: -2% |
| O=C(NCc1ccccc1)N1CCOc2ccccc21 | inconclusive: -25.8% |
| c1ccc(-c2nc(-c3nccc4ccccc34)oc2-c2ccccc2)cc1 | inactive: 4.8% |
| O=c1c2c([nH]c3ccccc13)CCC2 | inconclusive: -0.4% |
| CCOC(=O)C(=O)C1C(=O)Nc2ccccc21 (stereo not given) | inconclusive: -15.4% |
| O=C(CCC(=O)N1CCN(c2ccc(F)cc2)CC1)N1CCN(c2ccc(F)cc2)CC1 | active: 41% |
| O=C(NNS(=O)(=O)c1ccccc1)c1cccc([N+](=O)[O-])c1 | inconclusive: -26.2% |
| Cc1cc2nc3c(=O)n(CCc4ccccc4)c(=O)[nH]c3nc2cc1N | inconclusive: 5.5% |
| COc1cccc2[nH]c(C(=O)NC(C)c3ccccc3)cc12 (stereo not given) | inconclusive: 8.9% |
| Cc1c(C(=O)OCC(=O)N2CCCC(C)C2)oc2ccccc12 (stereo not given) | inactive: -1.5% |
| COc1ccccc1C(=O)NNC(=O)c1cccc(Br)c1 | inconclusive: -3.3% |
| Cc1ccc(CNC(=O)CCSCc2ccc(C)cc2)cc1 | inconclusive: -6.5% |
| CCOc1ccc(C(=O)NCCc2cnc[nH]2)cc1 | active: 49.9% |
| COc1ccc(N2C(=O)CC(Cc3ccc(Br)cc3)C2=O)cc1 (stereo not given) | inconclusive: -15% |
| O=C(CCCN1C(=O)NC2(CCCC2)C1=O)NCc1ccccc1 | inactive: -17.8% |

| Compound | inhibition |
| --- | --- |
| CC1(C)C(O)=C(c2nc3ccccc3[nH]2)C(=N)N1c1ccccc1 | inconclusive: 4.7% |
| COCc1nnc(NS(=O)(=O)c2ccc(OC)cc2)s1 | inconclusive: -0.9% |
| COc1ccc(OCCCn2ccnc2)cc1 | inconclusive: -28.1% |
| COc1cccc(NC(=O)C/C(C)=N/NC(=O)c2ccccc2Cl)c1 | inconclusive: 2.6% |
| CNc1ccccc1C(=O)OCC(=O)N(CCOC)c1c(N)n(CC(C)C)c(=O)[nH]c1=O | inconclusive: -12.6% |
| Cc1nc(Nc2cc(F)ccc2C)c2nnn(Cc3ccccc3)c2n1 | inconclusive: 4.4% |
| CN(CC(=O)Nc1ccc(F)c(F)c1F)C(=O)C1CCC1 | inconclusive: -0.4% |
| Cc1nnc(NC(=O)CCSc2ccccc2)s1 | inactive: -0.8% |
| O=C(COC(=O)CNC(=O)c1ccccc1)Nc1nnc(-c2ccccc2)o1 | inconclusive: 9.9% |
| COc1cccc(NC(=O)c2oc3ccccc3c2NC(=O)C(C)(C)C)c1 | active: 52.9% |
| CCOc1cccc(N2CCN(CCNC(=O)Nc3ccc(C)cc3)CC2)c1C | inconclusive: 5.4% |
| Nc1nc(Br)c2c(F)cccc2c1-c1ccccc1 | inactive: -4.9% |
| COc1ccc(COC(=O)C2=C(C)NC(=O)NC2c2ccc(F)cc2)cc1 (stereo not given) | inconclusive: -14.7% |
| O=C(Nc1cc(Cl)ccc1N1CCOCC1)c1cccnc1Cl | inconclusive: 21.2% |
| CC1CCN(CC(=O)NC2CCCCC2)CC1 | inconclusive: 25.5% |
| c1ccc(Oc2cccc(Oc3ccccc3)n2)cc1 | inconclusive: 43.8% |
| COc1ccc(C(=O)Nc2cccc(C)n2)cc1S(=O)(=O)N1CCCc2ccccc21 | inconclusive: 6.1% |
| Oc1c(Cl)cc(Cl)cc1CNc1nc2ccccc2[nH]1 | inconclusive: -6.8% |
| COC(=O)C(C)Oc1ccc2c3c(c(=O)oc2c1)CCCCC3 (stereo not given) | inconclusive: -15.2% |
| O=C(c1ccc(C(F)(F)F)cc1)n1ccc(-c2cccs2)n1 | inconclusive: 63.8% |
| COc1cc(CN2CCN(Cc3ccc4cc(F)ccc4n3)CC2CCO)cc(OC)c1 (stereo not given) | inconclusive: 25.2% |
| CCOc1ccc(CCNC(=O)COC(=O)c2ccc(Br)o2)cc1OCC | inconclusive: 10.1% |
| COCCN1C(=O)N(c2cccc(OC)c2)C(=O)C1CC(=O)Nc1ccc(Cl)cc1 (stereo not given) | inconclusive: 28.8% |
